Assay results published in article PMC6913127, “Structures of MERS1, the 5′ processing enzyme of mitochondrial mRNAs in Trypanosoma brucei” (RNA, 2020).
These are yes or no findings as the source states them, for the method shown. Some binding calls cover weakened binding; strength is not graded here. Tags and fused reporters may be left off the sequences shown.

Tests used:
[1] = target: T1, fluoresceinated MERS2 peptide with two proline substitutions F-… (T. brucei); assay: fluorescence polarisation; purified MERS1 titrated into 1 nM fluoresceinated peptide; 25 mM Tris HCl pH 7.5, 5% (v/v) glycerol, 150 mM NaCl; both purified
T1 sequence (peptide, fluorescein (F-) printed at the N-terminus): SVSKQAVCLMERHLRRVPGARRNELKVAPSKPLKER

[2] = target: T2, fluoresceinated control peptide F-…; assay: as above
T2 sequence (peptide, fluorescein (F-) printed at the N-terminus): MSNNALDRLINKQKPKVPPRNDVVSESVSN

B1: T. brucei MERS1(37–395), his-tagged (enzyme, UniProt B6SBM0 37-395)
chain: LVPRGSMDDALRGELASALDTEGHALPFDVHLQQPHSSGDGTAGDTSTIQLEKLSHPPARFDLLTNSFVYKWQTKAALARKVSGPMREWAAELKYRTGVHIELEPTYPERLSENAVKGSGSDDGDGTQWGAYETADDVDITVYLFGSERGIFNCHKLMEAAIQQDPVYVRLGIFRRLANSSEVEWLMLRRINRELRPPDIPPISLKLPGKWTLLYERYKEAAIRTLWEETGITVDASNVYPTGHLYQTVPQYYWRVPVRYFVAEVPSDIRVEGPQVVPLQYMRNWDARLLRQSPDPIDRAWAQLADPATGCAWMKASMIDQLQKPLRGDNYMAIRYTPPPYSNLQEVVGLGDGSITPSTGNGEDAS
B1 was tested, and the binding [1] was “binds weakly” and the binding [2] was “no binding”.
